{"source": "paper PMC10022686", "key": {"[1]": {"target": "GST–RAPH1^F2 (RAPH1 aa 535–868) (UniProt Q70E73)", "assay": "pull-down; recombinant GST–RAPH1^F2 or GST alone on beads, in MDA-MB-231 cell lysates; MYO10 detected by western blotting; only the target purified"}, "[2]": {"target": "GFP–RAPH1^F2 (RAPH1 aa 535–868) (UniProt Q70E73)", "assay": "co-IP; GFP-Trap beads, lysates of MDA-MB-231 cells expressing GFP-tagged bait; 20 mM HEPES pH 7.4, 75 mM NaCl, 2 mM EDTA, 1% NP-40; 1 h at 4°C; endogenous MYO10 detected by western blotting"}, "[3]": {"target": "RAPH1–GFP lacking the F5 fragment (RAPH1^Δ536-587) (UniProt Q70E73)", "assay": "co-IP; GFP-Trap beads, lysates of MDA-MB-231 cells expressing GFP-tagged bait; 20 mM HEPES pH 7.4, 75 mM NaCl, 2 mM EDTA, 1% NP-40; 1 h at 4°C; endogenous MYO10 detected by western blotting"}, "[4]": {"target": "full-length RAPH1–GFP (UniProt Q70E73)", "assay": "co-IP; GFP-Trap beads, lysates of MDA-MB-231 cells expressing GFP-tagged bait; 20 mM HEPES pH 7.4, 75 mM NaCl, 2 mM EDTA, 1% NP-40; 1 h at 4°C; endogenous MYO10 detected by western blotting"}}, "note": "Results are given in words; binding and its absence hold for the method and conditions named. Binding seen in cells or lysates may run through a third protein. Some binding calls cover weakened binding; strength is not graded here."}
{"substance": "Myosin-X (MYO10), endogenous in MDA-MB-231 cells (from UniProt Q9HD67 1-2058)", "values": [{"measurement": "binding", "setting": "[1]", "value": "binds"}, {"measurement": "binding", "setting": "[2]", "value": "binds"}, {"measurement": "binding", "setting": "[3]", "value": "binds weakly"}, {"measurement": "binding", "setting": "[4]", "value": "binds"}]}
